Laboratory results published in the supplement of paper PMC10849652.
This is one part of the list.

Chains of the proteins cited; added tags and fusions are not shown. Lines headed by an entry give the natural chain unless they say otherwise; changes in a name come on top.
UniProt Q7Z406, whole entry, looked up: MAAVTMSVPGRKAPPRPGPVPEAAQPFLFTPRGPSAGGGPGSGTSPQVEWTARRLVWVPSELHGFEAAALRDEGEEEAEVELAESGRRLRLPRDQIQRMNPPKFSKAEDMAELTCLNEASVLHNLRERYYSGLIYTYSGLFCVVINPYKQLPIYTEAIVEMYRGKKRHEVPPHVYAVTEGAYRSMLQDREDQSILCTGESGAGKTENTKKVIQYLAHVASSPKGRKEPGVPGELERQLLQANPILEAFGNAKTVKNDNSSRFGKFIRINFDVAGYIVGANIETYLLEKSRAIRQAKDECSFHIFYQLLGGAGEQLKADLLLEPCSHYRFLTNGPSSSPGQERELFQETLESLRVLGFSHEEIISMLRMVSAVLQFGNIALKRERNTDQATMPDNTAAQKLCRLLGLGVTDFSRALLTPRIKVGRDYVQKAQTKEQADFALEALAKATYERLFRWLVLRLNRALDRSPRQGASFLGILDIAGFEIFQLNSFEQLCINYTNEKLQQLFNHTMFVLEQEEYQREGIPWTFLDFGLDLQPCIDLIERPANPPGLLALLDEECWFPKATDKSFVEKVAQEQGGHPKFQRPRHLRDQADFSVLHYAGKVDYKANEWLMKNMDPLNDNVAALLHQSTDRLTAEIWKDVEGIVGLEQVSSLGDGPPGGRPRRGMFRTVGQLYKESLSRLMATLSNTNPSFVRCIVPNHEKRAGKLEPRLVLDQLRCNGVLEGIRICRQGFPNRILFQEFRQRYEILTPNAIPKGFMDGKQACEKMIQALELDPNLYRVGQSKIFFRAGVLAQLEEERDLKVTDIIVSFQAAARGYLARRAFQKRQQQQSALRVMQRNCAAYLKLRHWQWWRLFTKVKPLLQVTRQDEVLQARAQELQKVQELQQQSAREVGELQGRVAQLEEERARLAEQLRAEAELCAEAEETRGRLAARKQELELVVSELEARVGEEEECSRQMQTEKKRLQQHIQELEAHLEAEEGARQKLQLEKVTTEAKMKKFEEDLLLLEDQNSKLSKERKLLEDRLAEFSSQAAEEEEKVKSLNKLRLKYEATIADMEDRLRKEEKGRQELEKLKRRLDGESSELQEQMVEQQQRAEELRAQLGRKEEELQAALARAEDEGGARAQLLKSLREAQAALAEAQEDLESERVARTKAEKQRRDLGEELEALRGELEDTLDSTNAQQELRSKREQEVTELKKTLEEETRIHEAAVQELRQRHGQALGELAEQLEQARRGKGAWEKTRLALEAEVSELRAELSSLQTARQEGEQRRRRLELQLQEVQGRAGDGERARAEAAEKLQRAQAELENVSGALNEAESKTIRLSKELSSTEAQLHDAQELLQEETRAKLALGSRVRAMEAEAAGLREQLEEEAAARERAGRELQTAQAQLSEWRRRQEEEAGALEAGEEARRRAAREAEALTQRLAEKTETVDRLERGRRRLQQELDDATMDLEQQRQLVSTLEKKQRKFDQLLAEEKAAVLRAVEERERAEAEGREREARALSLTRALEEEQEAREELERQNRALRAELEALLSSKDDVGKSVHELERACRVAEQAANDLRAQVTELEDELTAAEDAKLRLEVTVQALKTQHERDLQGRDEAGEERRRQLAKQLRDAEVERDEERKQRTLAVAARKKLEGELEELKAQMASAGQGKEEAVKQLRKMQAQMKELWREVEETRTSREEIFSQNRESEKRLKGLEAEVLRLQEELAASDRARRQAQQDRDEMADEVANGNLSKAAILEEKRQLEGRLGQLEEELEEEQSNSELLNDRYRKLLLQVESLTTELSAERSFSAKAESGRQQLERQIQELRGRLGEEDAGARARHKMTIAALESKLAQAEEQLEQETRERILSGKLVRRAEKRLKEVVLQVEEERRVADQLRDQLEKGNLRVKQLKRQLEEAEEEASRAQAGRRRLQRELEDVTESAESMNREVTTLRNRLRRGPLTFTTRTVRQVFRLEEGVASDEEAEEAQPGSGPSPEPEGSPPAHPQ
UniProt P35579, whole entry, looked up: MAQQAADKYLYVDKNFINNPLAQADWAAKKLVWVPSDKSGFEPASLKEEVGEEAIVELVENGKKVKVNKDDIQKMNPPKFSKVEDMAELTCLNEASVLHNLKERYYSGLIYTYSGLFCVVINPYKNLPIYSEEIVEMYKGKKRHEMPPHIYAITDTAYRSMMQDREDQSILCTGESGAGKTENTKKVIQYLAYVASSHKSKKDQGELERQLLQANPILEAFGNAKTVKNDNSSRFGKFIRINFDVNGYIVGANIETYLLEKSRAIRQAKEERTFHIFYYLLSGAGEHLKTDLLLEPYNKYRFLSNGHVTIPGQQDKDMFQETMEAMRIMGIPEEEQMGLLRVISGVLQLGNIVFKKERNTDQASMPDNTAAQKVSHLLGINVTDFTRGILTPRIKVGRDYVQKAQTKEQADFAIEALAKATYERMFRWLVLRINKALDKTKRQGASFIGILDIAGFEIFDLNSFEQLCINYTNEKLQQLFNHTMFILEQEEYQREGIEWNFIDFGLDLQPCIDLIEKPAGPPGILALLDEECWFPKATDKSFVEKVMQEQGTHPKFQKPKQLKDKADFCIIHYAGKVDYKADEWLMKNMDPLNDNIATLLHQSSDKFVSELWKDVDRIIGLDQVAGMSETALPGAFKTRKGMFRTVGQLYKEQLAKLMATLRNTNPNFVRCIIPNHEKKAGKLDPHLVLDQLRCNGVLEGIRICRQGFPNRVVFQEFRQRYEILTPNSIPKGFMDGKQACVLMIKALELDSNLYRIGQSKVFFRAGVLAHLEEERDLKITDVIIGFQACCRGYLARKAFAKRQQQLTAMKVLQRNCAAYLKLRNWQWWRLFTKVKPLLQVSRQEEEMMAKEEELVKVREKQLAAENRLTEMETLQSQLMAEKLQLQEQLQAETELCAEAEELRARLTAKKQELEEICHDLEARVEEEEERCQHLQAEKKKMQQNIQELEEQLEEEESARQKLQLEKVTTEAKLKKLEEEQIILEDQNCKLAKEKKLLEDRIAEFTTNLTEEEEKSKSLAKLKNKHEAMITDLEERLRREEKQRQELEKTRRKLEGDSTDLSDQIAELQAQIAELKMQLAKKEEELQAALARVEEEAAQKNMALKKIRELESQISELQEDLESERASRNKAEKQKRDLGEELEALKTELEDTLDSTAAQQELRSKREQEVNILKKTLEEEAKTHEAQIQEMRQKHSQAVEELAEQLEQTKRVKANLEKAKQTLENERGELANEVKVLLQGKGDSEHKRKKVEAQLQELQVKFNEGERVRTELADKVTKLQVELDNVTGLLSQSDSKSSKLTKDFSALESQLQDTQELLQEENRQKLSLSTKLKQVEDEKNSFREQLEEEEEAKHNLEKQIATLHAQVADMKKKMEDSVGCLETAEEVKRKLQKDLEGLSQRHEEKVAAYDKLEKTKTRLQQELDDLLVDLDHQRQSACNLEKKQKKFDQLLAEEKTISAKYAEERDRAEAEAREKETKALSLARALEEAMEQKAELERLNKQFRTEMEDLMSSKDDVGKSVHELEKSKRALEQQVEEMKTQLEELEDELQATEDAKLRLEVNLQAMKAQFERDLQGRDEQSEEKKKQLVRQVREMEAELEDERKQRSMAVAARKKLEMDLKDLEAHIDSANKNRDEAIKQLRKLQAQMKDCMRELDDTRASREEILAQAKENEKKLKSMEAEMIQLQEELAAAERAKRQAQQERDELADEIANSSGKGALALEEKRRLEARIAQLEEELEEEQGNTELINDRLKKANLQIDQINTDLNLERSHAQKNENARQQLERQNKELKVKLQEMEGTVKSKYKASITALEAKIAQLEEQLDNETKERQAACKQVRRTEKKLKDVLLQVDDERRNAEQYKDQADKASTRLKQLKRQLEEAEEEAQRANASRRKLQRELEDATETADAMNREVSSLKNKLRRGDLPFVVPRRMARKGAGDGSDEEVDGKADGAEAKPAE
UniProt P42898: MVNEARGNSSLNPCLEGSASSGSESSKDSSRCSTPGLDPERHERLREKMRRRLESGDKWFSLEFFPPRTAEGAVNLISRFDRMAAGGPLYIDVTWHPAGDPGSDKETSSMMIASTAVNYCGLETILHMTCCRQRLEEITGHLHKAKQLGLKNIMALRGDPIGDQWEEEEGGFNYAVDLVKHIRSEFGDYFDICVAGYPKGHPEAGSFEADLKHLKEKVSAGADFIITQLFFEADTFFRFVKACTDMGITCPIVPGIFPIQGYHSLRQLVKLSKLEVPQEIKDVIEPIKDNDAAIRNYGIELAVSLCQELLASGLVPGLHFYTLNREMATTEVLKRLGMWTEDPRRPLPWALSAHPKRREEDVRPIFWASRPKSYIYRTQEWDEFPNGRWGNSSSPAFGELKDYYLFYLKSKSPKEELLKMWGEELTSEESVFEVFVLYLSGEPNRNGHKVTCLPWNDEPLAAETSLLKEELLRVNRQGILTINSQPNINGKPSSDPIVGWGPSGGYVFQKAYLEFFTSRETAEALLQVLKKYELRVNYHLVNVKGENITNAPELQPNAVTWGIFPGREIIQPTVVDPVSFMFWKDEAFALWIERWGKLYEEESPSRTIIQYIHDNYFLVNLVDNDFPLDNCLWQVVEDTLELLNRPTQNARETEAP
UniProt Q9Y217: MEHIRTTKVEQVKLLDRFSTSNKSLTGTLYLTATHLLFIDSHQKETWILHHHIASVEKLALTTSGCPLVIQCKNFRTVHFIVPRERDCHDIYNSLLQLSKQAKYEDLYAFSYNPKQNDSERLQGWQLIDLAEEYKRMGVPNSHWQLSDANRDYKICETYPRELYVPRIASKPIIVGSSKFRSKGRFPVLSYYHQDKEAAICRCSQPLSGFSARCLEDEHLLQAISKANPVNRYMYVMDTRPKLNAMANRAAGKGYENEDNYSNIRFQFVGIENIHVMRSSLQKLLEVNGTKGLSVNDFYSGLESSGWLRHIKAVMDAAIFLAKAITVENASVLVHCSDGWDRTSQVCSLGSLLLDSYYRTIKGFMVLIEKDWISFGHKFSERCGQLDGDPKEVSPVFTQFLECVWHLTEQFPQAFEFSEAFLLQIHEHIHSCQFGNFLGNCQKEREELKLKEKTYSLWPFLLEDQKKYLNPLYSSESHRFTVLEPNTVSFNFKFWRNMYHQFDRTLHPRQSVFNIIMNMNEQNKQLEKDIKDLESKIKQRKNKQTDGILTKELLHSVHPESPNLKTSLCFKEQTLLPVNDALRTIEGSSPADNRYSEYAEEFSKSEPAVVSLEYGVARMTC
UniProt Q9UM54, whole entry, looked up: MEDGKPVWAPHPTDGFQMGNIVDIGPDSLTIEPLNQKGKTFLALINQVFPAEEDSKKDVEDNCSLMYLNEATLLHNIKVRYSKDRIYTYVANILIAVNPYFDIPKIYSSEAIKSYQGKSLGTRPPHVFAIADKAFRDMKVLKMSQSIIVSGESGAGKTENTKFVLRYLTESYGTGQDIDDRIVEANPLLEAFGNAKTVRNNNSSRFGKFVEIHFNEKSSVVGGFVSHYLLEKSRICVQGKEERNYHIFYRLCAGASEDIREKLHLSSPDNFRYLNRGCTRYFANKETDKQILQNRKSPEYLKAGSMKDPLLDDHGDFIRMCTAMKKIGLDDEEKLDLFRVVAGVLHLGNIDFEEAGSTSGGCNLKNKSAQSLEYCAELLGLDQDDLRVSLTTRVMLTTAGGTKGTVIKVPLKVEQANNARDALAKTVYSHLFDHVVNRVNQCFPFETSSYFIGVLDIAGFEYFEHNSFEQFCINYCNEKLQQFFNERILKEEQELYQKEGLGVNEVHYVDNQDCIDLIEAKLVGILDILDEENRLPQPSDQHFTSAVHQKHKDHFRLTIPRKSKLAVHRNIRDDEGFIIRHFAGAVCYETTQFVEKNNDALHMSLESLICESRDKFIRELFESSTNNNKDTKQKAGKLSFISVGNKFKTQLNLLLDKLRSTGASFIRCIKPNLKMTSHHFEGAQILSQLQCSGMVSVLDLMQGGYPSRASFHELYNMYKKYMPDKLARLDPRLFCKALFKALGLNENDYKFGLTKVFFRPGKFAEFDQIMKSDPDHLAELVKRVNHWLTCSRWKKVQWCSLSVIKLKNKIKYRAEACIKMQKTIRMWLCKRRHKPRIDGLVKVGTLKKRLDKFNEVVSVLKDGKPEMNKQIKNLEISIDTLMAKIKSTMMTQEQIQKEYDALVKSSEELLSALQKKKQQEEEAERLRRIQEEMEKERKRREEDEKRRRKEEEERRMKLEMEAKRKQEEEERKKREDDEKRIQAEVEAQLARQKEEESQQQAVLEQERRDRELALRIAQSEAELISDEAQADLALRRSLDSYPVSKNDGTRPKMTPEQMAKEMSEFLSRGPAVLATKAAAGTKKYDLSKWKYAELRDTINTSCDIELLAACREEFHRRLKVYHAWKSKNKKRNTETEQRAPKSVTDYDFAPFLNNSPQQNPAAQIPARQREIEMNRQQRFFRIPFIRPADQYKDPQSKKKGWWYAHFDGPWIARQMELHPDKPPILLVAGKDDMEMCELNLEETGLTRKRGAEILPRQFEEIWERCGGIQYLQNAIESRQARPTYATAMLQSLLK

Key:
Assay in all cases: log2 fold change, soluble protein after heating vs DMSO (PISA); higher = thermal stabilisation; K562 cells, 10 uM, 30 min; active = over 0.2 and 3.5 SD of the protein, either way, in both replicates (recomputed)
saracatinib = compound: CN1CCN(CCOc2cc(OC3CCOCC3)c3c(Nc4c(Cl)ccc5c4OCO5)ncnc3c2)CC1 [saracatinib]
In short: (§1)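 Aliquots of K562 cells (2×10^6 cells/mL) treated with 10 μM compound for 30 min were heated for 3 min over 48°C-58°C. After pooling and extraction in PBS with 0.5% NP-40 at 4°C, soluble protein from a 21,000xg, 90 min spin was quantified by TMTpro 16plex LC-MS/MS with channel sums equalised. Thermal stability is expressed against control samples, from duplicates, as a log2 fold change.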

sotrastaurin = compound: CN1CCN(c2nc(C3=C(c4c[nH]c5ccccc45)C(=O)NC3=O)c3ccccc3n2)CC1 [sotrastaurin]
In short: as §1

alvocidib = compound: CN1CC[C@H](c2c(O)cc(O)c3c(=O)cc(-c4ccccc4Cl)oc23)[C@H](O)C1 [alvocidib]
In short: as §1

Tubastatin A = compound: CN1CCc2c(c3ccccc3n2Cc2ccc(C(=O)NO)cc2)C1 [Tubastatin A]
In short: as §1

[1] = compound: CNC(=O)C1=CC=CC=C1NC2=NC(=NC=C2Cl)NC3=C(C=C(C=C3)N4CCOCC4)OC
In short: as §1

defactinib = compound: CNC(=O)c1ccc(Nc2ncc(C(F)(F)F)c(NCc3nccnc3N(C)S(C)(=O)=O)n2)cc1 [defactinib]
In short: as §1

rucaparib = compound: CNCc1ccc(-c2[nH]c3cc(F)cc4c3c2CCNC4=O)cc1 [rucaparib]
In short: as §1

[2] = compound: CNc1nc(-c2ccc3c(N)n[nH]c3c2)cc(N2C[C@@H](C(=O)NC3CCCCC3)CC[C@H]2C)n1
In short: as §1

encorafenib = compound: COC(=O)N[C@@H](C)CNc1nccc(-c2cn(C(C)C)nc2-c2cc(Cl)cc(NS(C)(=O)=O)c2F)n1 [encorafenib]
In short: as §1

[3] = compound: COC(=O)[C@H](CCSC)NC(=O)C1=C(C=C(C=C1)NC[C@H](CS)N)C2=CC=CC=C2
In short: as §1

Measured: log2 fold change

MVK (UniProt Q03426)
inactive: saracatinib -0.006 | sotrastaurin 0.021 | alvocidib -0.003 | Tubastatin A -0.02 | [1] -0.027 | defactinib -0.051 | rucaparib -0.022 | [2] -0.02 | encorafenib 0.001 | [3] -0.007

MTREX (UniProt P42285)
inactive: saracatinib -0.022 | sotrastaurin -0.026 | alvocidib -0.025 | Tubastatin A 0 | [1] 0.015 | defactinib -0.004 | rucaparib 0 | [2] 0.043 | encorafenib -0.016 | [3] 0.008

MYH14 isoform 2 (UniProt Q7Z406)
inactive: saracatinib 0.021 | sotrastaurin 0.008 | alvocidib 0.002 | Tubastatin A -0.008 | [1] -0.025 | defactinib -0.034 | rucaparib -0.053 | [2] 0.01 | encorafenib 0.014 | [3] 0.014

MTMR12 (UniProt Q9C0I1)
inactive: saracatinib -0.001 | sotrastaurin -0.001 | alvocidib -0.009 | Tubastatin A -0.011 | [1] -0.045 | defactinib -0.02 | rucaparib 0.013 | [2] -0.007 | encorafenib -0.002 | [3] 0.022

MYCBP2 (UniProt O75592)
inactive: saracatinib -0.203 | sotrastaurin 0.447 | alvocidib 0.064 | Tubastatin A -0.061 | [1] 0.054 | defactinib 0.126 | rucaparib -0.073 | [2] 0.252 | encorafenib -0.163 | [3] 0.226

MTCH2 (UniProt Q9Y6C9)
inactive: saracatinib 0 | sotrastaurin 0.05 | alvocidib -0.025 | Tubastatin A -0.155 | [1] 0.033 | defactinib 0.019 | rucaparib 0 | [2] -0.034 | encorafenib -0.005 | [3] 0.049

MVD (UniProt P53602)
inactive: saracatinib 0.078 | sotrastaurin 0.019 | alvocidib -0.023 | Tubastatin A 0.005 | [1] -0.022 | defactinib -0.034 | rucaparib -0.017 | [2] -0.031 | encorafenib -0.017 | [3] 0.012

MYH9 (UniProt P35579)
inactive: saracatinib 0.05 | sotrastaurin -0.05 | alvocidib -0.067 | Tubastatin A -0.003 | [1] 0.012 | defactinib -0.04 | rucaparib -0.121 | [2] 0.018 | encorafenib 0.037 | [3] -0.029

MTMR2 (UniProt Q13614)
inactive: saracatinib 0.028 | sotrastaurin 0.012 | alvocidib -0.063 | Tubastatin A 0.004 | [1] -0.003 | defactinib -0.061 | rucaparib -0.035 | [2] -0.017 | encorafenib 0.01 | [3] 0.014

MTA2 (UniProt O94776)
inactive: saracatinib -0.053 | sotrastaurin -0.168 | alvocidib -0.132 | Tubastatin A -0.006 | [1] -0.03 | defactinib -0.106 | rucaparib 0.052 | [2] 0.018 | encorafenib 0.145 | [3] -0.009

MTFR2 (UniProt Q6P444)
inactive: saracatinib 0.021 | sotrastaurin -0.012 | alvocidib -0.019 | Tubastatin A 0.022 | [1] -0.051 | defactinib -0.04 | rucaparib -0.008 | [2] -0.068 | encorafenib -0.033 | [3] -0.028

MTMR3 (UniProt Q13615)
inactive: saracatinib -0.038 | sotrastaurin -0.051 | alvocidib -0.066 | Tubastatin A -0.011 | [1] 0.013 | defactinib -0.053 | rucaparib -0.091 | [2] 0.039 | encorafenib -0.05 | [3] 0.026

MTO1 isoform 6 (UniProt Q9Y2Z2)
inactive: saracatinib -0.016 | sotrastaurin 0.001 | alvocidib -0.026 | Tubastatin A -0.043 | [1] 0.059 | defactinib 0.005 | rucaparib 0.232 | [2] -0.053 | encorafenib 0.006 | [3] -0.056

MRPL9 (UniProt Q9BYD2)
inactive: saracatinib -0.163 | sotrastaurin -0.109 | alvocidib 0.043 | Tubastatin A 0.081 | [1] -0.056 | defactinib 0.108 | rucaparib 0.136 | [2] 0.141 | encorafenib 0.101 | [3] -0.057

MYO18A (UniProt Q92614)
inactive: saracatinib -0.011 | sotrastaurin -0.018 | alvocidib 0.062 | Tubastatin A -0.013 | [1] -0.11 | defactinib -0.018 | rucaparib 0.115 | [2] 0.072 | encorafenib 0.015 | [3] -0.042

MT-CYB (UniProt P00156)
inactive: saracatinib 0.036 | sotrastaurin 0.057 | alvocidib -0.042 | Tubastatin A -0.02 | [1] 0.062 | defactinib 0.023 | rucaparib -0.137 | [2] -0.017 | encorafenib 0.042 | [3] 0.063

MYO1C (UniProt O00159)
inactive: saracatinib -0.075 | sotrastaurin -0.141 | alvocidib 0.096 | Tubastatin A 0.036 | [1] 0.01 | defactinib 0.059 | rucaparib 0.208 | [2] 0.077 | encorafenib 0.209 | [3] -0.022

MTHFD1L (UniProt Q6UB35)
inactive: saracatinib -0.006 | sotrastaurin 0.019 | alvocidib -0.086 | Tubastatin A -0.014 | [1] -0.024 | defactinib -0.049 | rucaparib -0.022 | [2] 0.024 | encorafenib 0.027 | [3] -0.036

MRPS11 (UniProt P82912)
inactive: saracatinib 0 | sotrastaurin -0.038 | alvocidib 0.039 | Tubastatin A -0.144 | [1] -0.138 | defactinib 0.06 | rucaparib 0.048 | [2] 0.118 | encorafenib 0.003 | [3] 0.029

MTHFR isoform 2 (UniProt P42898)
inactive: saracatinib -0.007 | sotrastaurin 0.082 | alvocidib -0.046 | Tubastatin A -0.032 | [1] -0.014 | defactinib -0.012 | rucaparib 0.034 | [2] 0.058 | encorafenib -0.027 | [3] -0.089

MRPS34 (UniProt P82930)
inactive: saracatinib -0.111 | sotrastaurin 0.013 | alvocidib -0.035 | Tubastatin A 0.003 | [1] 0.089 | defactinib 0.057 | rucaparib 0.077 | [2] 0.117 | encorafenib 0.044 | [3] -0.062

MTMR6 (UniProt Q9Y217)
inactive: saracatinib 0.11 | sotrastaurin 0.016 | alvocidib -0.028 | Tubastatin A -0.001 | [1] 0.027 | defactinib -0.11 | rucaparib -0.086 | [2] 0.034 | encorafenib -0.041 | [3] -0.036

MYO1D (UniProt O94832)
inactive: saracatinib -0.008 | sotrastaurin 0.011 | alvocidib 0.099 | Tubastatin A 0.094 | [1] -0.021 | defactinib 0.061 | rucaparib 0.229 | [2] 0.048 | encorafenib 0.017 | [3] 0.024

MRTFB isoform 5 (UniProt Q9ULH7)
inactive: saracatinib -0.017 | sotrastaurin -0.003 | alvocidib -0.004 | Tubastatin A -0.011 | [1] -0.018 | defactinib -0.062 | rucaparib -0.04 | [2] -0.083 | encorafenib 0.012 | [3] -0.006

MYDGF (UniProt Q969H8)
inactive: saracatinib 0.077 | sotrastaurin 0.058 | alvocidib 0.026 | Tubastatin A -0.05 | [1] -0.02 | defactinib -0.006 | rucaparib -0.004 | [2] -0.038 | encorafenib -0.003 | [3] 0.033

MYCBP (UniProt Q99417)
inactive: saracatinib -0.034 | sotrastaurin 0.021 | alvocidib 0.02 | Tubastatin A 0.035 | [1] -0.015 | defactinib 0.056 | rucaparib 0 | [2] -0.055 | encorafenib -0.003 | [3] 0.062

MRTFA (UniProt Q969V6)
inactive: saracatinib 0.081 | sotrastaurin -0.048 | alvocidib -0.115 | Tubastatin A 0.038 | [1] -0.013 | defactinib 0.186 | rucaparib -0.134 | [2] -0.058 | encorafenib -0.046 | [3] -0.017

MYO6 isoform 6 (UniProt Q9UM54)
inactive: saracatinib 0.07 | sotrastaurin 0.038 | alvocidib -0.083 | Tubastatin A -0.049 | [1] -0.041 | defactinib -0.026 | rucaparib -0.009 | [2] 0.014 | encorafenib -0.001 | [3] 0.018

Reprinted at random: 2 entries already listed, in no set order.
MTMR12 (UniProt Q9C0I1)
inactive: saracatinib -0.001 | sotrastaurin -0.001 | alvocidib -0.009 | Tubastatin A -0.011 | [1] -0.045 | defactinib -0.02 | rucaparib 0.013 | [2] -0.007 | encorafenib -0.002 | [3] 0.022

MTMR6 (UniProt Q9Y217)
inactive: saracatinib 0.11 | sotrastaurin 0.016 | alvocidib -0.028 | Tubastatin A -0.001 | [1] 0.027 | defactinib -0.11 | rucaparib -0.086 | [2] 0.034 | encorafenib -0.041 | [3] -0.036

(cont.)

MTDH (UniProt Q86UE4)
inactive: saracatinib 0.008 | sotrastaurin 0.024 | alvocidib 0.295 | Tubastatin A 0.028 | [1] 0 | defactinib 0.399 | rucaparib 0.348 | [2] 0.061 | encorafenib 0.105 | [3] 0.07

MTA1 (UniProt Q13330)
inactive: saracatinib -0.019 | sotrastaurin -0.161 | alvocidib -0.199 | Tubastatin A -0.029 | [1] -0.029 | defactinib -0.181 | rucaparib 0.059 | [2] -0.043 | encorafenib 0.06 | [3] -0.019
